Publication PMC2793518
Results are given in words; binding and its absence hold for the method and conditions named. Some binding calls cover weakened binding; strength is not graded here.

Protein sequences, listed by entry. Tags and fused reporters are not part of them. Residues count along the entry.
UniProt P15529, residues 35-392: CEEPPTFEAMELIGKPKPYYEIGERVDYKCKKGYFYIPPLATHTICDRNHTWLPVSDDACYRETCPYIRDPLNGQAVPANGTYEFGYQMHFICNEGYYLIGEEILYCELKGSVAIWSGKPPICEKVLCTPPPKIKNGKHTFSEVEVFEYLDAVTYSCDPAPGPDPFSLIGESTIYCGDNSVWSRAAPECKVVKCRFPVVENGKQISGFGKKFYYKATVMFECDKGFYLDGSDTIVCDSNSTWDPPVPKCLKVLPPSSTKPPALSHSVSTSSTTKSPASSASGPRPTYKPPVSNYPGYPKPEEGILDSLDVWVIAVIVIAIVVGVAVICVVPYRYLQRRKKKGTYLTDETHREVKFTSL
UniProt P35774: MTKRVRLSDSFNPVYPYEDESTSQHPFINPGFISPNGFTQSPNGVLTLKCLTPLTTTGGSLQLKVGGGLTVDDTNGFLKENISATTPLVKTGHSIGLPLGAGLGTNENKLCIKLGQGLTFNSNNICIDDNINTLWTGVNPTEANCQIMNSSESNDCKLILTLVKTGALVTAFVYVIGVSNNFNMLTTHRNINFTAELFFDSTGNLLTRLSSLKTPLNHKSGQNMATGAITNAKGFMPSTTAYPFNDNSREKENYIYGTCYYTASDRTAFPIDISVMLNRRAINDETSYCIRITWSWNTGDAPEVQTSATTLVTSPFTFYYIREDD

Target: CD46 on A549 cells (human (endogenous in A549)) (UniProt P15529)
Assay: flow cytometry on cells; A549 cultures infected with CRAD (low MOI, days 3 to 7; or MOI 5 or 50, 12 to 24 hr) or WT adenoviruses (until CPE or day 10); cell surface fiber detected with 4D2 mAb, CAR with RmcB mAb, CD46 with E4.3, J4.48 or MEM-258 mAb; staining on ice

Ad11 fiber (from UniProt P35774 1-325)
binding: binds
